# Test results: the supplement of paper PMC12067093, “Discovery and optimisation of a covalent ligand for TRIM25 and its application to targeted protein ubiquitination” (Chemical Science, 2025)
# By UniProt entry, the sequences of proteins in these tests, tags left out. Where a name states a change or a piece, a line headed by the entry shows the natural chain unless it says otherwise.
# UniProt O14497, whole entry, looked up: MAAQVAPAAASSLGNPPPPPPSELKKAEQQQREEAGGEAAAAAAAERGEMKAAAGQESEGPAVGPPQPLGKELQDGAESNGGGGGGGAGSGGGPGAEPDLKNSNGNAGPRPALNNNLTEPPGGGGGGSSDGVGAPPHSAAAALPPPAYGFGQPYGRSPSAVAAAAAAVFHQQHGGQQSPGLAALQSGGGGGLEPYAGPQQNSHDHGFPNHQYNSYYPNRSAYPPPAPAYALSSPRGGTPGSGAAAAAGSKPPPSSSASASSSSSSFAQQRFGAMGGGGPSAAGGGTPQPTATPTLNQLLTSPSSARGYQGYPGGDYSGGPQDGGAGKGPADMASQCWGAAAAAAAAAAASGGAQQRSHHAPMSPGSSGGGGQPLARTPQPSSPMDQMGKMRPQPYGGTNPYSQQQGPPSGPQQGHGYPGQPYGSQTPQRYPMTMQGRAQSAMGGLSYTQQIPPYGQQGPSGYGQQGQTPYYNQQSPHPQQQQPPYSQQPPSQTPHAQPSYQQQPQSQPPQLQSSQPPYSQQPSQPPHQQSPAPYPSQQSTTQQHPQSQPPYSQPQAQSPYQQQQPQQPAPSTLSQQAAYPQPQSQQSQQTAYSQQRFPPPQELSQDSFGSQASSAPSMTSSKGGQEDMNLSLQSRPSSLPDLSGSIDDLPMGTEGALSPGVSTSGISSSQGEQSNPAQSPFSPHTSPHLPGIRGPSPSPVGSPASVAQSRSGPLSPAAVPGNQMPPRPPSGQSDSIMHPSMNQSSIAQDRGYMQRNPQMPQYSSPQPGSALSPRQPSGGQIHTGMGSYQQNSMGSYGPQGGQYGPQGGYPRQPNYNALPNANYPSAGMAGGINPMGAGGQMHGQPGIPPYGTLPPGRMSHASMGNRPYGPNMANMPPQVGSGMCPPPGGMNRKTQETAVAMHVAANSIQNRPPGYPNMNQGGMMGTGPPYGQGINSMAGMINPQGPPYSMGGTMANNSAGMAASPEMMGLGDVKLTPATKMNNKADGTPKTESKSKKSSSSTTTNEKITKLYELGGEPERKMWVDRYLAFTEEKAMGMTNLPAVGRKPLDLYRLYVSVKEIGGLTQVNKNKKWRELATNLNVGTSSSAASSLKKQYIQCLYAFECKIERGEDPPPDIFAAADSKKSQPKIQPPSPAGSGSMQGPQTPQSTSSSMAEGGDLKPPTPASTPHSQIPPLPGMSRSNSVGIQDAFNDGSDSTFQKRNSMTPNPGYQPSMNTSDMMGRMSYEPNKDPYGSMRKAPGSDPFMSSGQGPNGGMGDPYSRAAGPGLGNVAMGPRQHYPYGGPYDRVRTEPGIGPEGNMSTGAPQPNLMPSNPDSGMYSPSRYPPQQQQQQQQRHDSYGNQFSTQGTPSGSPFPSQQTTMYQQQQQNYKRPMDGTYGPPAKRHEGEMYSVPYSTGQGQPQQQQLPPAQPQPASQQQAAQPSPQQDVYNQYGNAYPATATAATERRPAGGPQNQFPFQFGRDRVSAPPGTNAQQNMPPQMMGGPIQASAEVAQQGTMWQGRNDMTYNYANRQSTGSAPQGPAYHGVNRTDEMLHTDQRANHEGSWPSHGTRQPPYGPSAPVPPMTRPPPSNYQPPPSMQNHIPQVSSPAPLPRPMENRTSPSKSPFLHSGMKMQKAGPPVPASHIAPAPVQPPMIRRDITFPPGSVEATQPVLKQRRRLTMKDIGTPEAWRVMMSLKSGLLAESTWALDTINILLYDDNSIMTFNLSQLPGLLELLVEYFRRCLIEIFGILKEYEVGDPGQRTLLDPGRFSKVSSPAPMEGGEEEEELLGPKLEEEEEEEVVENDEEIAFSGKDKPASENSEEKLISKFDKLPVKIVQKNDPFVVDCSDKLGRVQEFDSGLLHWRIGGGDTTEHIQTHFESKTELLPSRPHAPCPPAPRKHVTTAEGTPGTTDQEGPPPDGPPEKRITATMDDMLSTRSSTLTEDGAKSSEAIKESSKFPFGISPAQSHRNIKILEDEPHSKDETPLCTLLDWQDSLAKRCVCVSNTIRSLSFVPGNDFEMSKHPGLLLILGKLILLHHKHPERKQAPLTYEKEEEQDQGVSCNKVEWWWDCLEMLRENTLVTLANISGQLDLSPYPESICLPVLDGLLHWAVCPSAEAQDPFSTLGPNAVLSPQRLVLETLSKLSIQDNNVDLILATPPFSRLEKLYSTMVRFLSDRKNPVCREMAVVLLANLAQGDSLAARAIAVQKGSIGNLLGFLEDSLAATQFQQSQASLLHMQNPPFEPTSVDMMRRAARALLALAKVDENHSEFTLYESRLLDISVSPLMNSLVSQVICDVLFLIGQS
# UniProt Q9UNA1: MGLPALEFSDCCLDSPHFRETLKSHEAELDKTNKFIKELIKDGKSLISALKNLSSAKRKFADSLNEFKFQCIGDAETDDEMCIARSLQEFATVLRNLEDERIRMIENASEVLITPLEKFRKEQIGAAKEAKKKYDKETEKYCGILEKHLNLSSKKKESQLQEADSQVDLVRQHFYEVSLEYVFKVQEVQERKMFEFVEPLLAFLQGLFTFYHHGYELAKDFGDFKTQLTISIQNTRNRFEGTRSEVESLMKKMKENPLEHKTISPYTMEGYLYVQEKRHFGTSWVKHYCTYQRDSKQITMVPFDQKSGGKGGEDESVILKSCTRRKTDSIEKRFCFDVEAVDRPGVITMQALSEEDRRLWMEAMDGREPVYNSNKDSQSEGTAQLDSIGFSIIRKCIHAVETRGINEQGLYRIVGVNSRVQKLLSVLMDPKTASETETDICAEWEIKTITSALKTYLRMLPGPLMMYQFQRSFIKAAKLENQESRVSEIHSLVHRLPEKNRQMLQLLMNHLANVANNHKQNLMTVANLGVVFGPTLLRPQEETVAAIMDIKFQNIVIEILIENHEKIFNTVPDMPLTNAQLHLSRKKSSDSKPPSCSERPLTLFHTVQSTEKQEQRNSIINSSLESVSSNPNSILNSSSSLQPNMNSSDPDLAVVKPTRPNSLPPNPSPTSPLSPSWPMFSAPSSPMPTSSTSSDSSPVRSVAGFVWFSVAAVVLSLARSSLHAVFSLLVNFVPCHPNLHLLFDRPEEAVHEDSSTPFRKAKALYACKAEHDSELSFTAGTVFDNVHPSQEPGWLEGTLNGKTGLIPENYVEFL
# UniProt P98171: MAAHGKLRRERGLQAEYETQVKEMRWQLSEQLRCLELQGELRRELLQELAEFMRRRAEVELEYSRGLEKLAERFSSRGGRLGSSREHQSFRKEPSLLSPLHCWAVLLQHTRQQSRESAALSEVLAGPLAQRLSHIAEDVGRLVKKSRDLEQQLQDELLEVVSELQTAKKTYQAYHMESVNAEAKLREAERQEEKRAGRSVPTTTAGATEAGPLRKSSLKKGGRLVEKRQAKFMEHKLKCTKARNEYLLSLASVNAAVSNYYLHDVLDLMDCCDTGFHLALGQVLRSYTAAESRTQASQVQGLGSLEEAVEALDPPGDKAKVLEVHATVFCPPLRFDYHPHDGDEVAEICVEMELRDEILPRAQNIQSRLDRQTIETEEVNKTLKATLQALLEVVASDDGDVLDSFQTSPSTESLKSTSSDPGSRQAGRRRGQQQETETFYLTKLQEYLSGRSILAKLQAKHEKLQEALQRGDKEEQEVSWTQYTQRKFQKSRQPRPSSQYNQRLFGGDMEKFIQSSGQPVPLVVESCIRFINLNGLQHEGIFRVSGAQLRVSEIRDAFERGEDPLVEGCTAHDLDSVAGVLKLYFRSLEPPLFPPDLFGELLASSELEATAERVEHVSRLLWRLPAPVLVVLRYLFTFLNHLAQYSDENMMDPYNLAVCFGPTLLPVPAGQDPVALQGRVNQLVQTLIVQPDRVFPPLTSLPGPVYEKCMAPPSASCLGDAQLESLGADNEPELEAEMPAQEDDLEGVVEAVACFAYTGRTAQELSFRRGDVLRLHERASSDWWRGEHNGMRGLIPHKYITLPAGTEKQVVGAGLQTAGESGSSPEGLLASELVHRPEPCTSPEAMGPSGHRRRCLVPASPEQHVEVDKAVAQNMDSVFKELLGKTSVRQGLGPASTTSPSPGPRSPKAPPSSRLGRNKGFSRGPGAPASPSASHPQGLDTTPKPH
# UniProt P48444: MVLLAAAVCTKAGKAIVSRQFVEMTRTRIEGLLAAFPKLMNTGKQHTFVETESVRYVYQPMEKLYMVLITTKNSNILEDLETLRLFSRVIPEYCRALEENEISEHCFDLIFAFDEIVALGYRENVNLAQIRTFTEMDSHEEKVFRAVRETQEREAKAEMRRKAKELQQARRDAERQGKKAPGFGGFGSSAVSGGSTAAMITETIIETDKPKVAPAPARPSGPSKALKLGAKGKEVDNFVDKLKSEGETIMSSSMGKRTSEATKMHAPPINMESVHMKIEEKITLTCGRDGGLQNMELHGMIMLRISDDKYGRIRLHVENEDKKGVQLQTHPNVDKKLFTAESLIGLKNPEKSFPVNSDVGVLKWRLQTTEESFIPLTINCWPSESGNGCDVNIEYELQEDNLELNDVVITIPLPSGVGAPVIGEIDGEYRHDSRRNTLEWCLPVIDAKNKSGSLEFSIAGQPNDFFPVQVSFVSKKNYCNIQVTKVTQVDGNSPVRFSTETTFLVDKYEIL
# UniProt Q53QZ3: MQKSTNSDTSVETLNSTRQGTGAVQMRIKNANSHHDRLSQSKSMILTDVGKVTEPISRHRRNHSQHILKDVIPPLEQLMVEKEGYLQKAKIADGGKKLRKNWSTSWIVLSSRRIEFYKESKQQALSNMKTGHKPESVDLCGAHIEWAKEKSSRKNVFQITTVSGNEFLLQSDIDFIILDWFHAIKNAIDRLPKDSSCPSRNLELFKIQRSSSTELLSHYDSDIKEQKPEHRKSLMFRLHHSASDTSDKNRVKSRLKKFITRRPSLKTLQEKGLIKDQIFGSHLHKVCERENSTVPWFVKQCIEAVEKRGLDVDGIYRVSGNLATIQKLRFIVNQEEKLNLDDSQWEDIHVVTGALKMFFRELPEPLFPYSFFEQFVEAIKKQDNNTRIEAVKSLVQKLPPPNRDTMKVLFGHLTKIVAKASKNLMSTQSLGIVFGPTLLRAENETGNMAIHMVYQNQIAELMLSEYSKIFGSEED
# UniProt Q96P48: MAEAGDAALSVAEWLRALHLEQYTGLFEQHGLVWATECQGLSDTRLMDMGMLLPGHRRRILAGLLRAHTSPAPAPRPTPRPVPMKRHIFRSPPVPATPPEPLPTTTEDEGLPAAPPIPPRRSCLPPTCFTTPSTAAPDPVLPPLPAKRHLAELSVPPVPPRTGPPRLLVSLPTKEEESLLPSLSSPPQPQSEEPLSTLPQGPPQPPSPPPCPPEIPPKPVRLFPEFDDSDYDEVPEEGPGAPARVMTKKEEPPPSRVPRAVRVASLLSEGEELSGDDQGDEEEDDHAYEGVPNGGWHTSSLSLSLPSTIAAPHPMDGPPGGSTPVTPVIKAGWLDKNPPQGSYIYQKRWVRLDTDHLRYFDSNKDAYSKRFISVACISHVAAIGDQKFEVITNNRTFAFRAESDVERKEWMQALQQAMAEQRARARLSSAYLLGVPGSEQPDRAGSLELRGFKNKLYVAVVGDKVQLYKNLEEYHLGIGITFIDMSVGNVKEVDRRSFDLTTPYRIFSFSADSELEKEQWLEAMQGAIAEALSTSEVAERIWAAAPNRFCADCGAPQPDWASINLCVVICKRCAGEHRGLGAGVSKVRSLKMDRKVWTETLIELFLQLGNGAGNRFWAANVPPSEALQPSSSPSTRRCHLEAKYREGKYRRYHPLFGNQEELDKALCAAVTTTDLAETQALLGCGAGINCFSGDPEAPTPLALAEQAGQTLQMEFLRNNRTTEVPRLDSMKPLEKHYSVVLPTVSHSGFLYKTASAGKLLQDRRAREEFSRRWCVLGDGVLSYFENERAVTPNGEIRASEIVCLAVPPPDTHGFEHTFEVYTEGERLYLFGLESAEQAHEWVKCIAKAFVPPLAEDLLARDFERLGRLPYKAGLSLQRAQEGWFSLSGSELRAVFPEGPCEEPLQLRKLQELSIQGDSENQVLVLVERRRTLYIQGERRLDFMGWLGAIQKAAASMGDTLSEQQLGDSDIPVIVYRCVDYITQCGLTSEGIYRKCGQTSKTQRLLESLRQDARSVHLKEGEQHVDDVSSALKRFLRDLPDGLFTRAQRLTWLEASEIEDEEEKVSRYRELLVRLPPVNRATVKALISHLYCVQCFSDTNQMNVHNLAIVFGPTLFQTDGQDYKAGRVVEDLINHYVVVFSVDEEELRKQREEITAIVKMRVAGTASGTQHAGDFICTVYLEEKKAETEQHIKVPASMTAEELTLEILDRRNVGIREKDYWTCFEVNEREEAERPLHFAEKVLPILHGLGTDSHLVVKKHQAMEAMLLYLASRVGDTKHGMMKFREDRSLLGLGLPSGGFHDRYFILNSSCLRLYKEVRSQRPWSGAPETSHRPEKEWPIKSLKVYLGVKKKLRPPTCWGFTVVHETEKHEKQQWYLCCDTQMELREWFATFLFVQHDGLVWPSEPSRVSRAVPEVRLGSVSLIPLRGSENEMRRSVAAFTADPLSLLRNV
# Some of the results follow.
# Compound: CC1Cc2ccccc2N1C(=O)C1CCCN(C1)C(=O)CCl (mixture of isomers) [TRIM25 ligand 11 (diastereomer mixture)]
# Assay: probe-labelled cysteine peptide fold change vs DMSO (competition) (log2 fold change); higher = less target engagement (more negative = stronger competition)
# Details: THP-1, incubation time: 4 h
# 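Further: competitive chemoproteomic profiling in live THP-1 cells with an iodoacetamide desthiobiotin (IA-DTB) probe, comparing probe-labelled peptide intensities in compound-treated cells against DMSO-treated controls.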
Target,probe-labelled cysteine peptide fold change (10 µM),probe-labelled cysteine peptide fold change (50 µM)
ARID2_Q68CP9_1634_KPGQNFMCLWQSCK (UniProt Q68CP9),-0.094,-0.158
ARHGAP25_P42331-2_147_VAGTPCGAVFGQR (UniProt P42331),-0.0269,0.0654
ARID1A_O14497_1874_TELLPSRPHAPCPPAPR (UniProt O14497),0.112,-0.145
ARPC1B_O15143_227_VAWVSHDSTVCLADADKK (UniProt O15143),0.153,-0.0521
ARHGAP17_Q68EM7_305_AALDCSTSHLDEFYSDPHAVAGALK (UniProt Q68EM7),0.0514,-0.0366
ARHGEF2_Q92974_573_TCPSREDFPLIETEDEAYLRR (UniProt Q92974),0.058,-0.000812
ARHGAP26_Q9UNA1_142_YCGILEK (UniProt Q9UNA1),-0.123,-0.0292
ARHGAP45_Q92619_278_CEGGVDAALLYAK (UniProt Q92619),-0.0145,-0.0277
ARHGAP4_P98171_34_CLELQGELR (UniProt P98171),0.103,-0.103
ARCN1_P48444_9_VLLAAAVCTK (UniProt P48444),0.0133,-0.0172
AQR_O60306_28_KIVAPTVSQINAEFVTQLACK (UniProt O60306),0.0261,-0.0383
ARHGAP15_Q53QZ3_140_TGHKPESVDLCGAHIEWAK (UniProt Q53QZ3),-0.0612,-0.171
ARID4A_P29374_211_DQCLVR (UniProt P29374),-0.12,-0.203
ARHGEF10_O15013_1335_ASSALVVCGGQGHR (UniProt O15013),-0.169,-0.173
ARFGEF2_Q9Y6D5_1617_LLDCLQESHSFSK (UniProt Q9Y6D5),0.0257,0.00817
ARID1A_O14497_1968_ILEDEPHSKDETPLCTLLDWQDSLAK (UniProt O14497),-0.016,-0.0153
APRT_P07741_140_VVVVDDLLATGGTMNAACELLGR (UniProt P07741),-0.00625,-0.0677
ARMC1_Q9NVT9_161_NLCEEALLK (UniProt Q9NVT9),-0.0945,0.302

Target,probe-labelled cysteine peptide fold change (10 µM),probe-labelled cysteine peptide fold change (50 µM)
ARHGAP30_Q7Z6I6_407_CAGVHISDPYNVNLPLHITSILSVPPNIISNVSLAR (UniProt Q7Z6I6),-0.395,-0.249
ARHGEF6_Q15052_514_LDEIEGNDCTFEITGNTVER (UniProt Q15052),0.175,-0.0916
ARHGAP35_Q9NRY4_924_FTSIPCSQPQHK (UniProt Q9NRY4),0.127,0.014
ARAP3_Q8WWN8_1199_VLEQALQWCQLPEPCSASLLLK (UniProt Q8WWN8),-0.0909,-0.203
ARAP1_Q96P48_376_FISVACISHVAAIGDQKFEVITNNR (UniProt Q96P48),-0.24,0.202
ARHGAP4_P98171_569_GEDPLVEGCTAHDLDSVAGVLK (UniProt P98171),0.262,-0.17
ARL2BP_Q9Y2Y0_149_GLDLSSGLVVTSLCK (UniProt Q9Y2Y0),-0.0154,-0.0879
ARHGAP45_Q92619_747_CLETLAIQCGHK (UniProt Q92619),-0.0234,-0.00666
ARAP1_Q96P48_1176_VAGTASGTQHAGDFICTVYLEEK (UniProt Q96P48),0.102,0.0408
ARHGAP18_Q8N392_637_CLDDDTYMK (UniProt Q8N392),0.0299,-0.0653
ARID4B_Q4LE39_420_ECENVK (UniProt Q4LE39),-0.173,-0.212
ARHGAP44_Q17R89_193_ADALREEMEEAANRVEICR (UniProt Q17R89),-0.149,0.0811
ARHGAP27_Q6ZUM4_830_MLFQHLCR (UniProt Q6ZUM4),0.0529,0.0803
APP_P05067_144_MDVCETHLHWHTVAK (UniProt P05067),-0.042,-0.087
ARF6_P62330_90_HYYTGTQGLIFVVDCADRDR (UniProt P62330),0.0124,-0.0303
ARHGEF10_O15013_809_AADCCR (UniProt O15013),-0.0182,-0.0452
ARL14EP_Q8N8R7_5_MMDPCSVGVQLR (UniProt Q8N8R7),0.152,-0.0459
ARHGEF2_Q92974_342_TYSEFCSR (UniProt Q92974),0.0143,0.0669

# Some of the entries so far, as tab-separated lines:
Target	probe-labelled cysteine peptide fold change (10 µM)	probe-labelled cysteine peptide fold change (50 µM)
ARCN1_P48444_9_VLLAAAVCTK (UniProt P48444)	0.0133	-0.0172
AQR_O60306_28_KIVAPTVSQINAEFVTQLACK (UniProt O60306)	0.0261	-0.0383
ARHGAP15_Q53QZ3_140_TGHKPESVDLCGAHIEWAK (UniProt Q53QZ3)	-0.0612	-0.171
